Laboratory results reported in the supplement of paper PMC10849652.
Some of the results follow.

Amino acid sequences for entries named in this document (tags omitted). A change or cut given only in a name is not applied to a line headed by its entry.
UniProt O00763, whole entry, looked up: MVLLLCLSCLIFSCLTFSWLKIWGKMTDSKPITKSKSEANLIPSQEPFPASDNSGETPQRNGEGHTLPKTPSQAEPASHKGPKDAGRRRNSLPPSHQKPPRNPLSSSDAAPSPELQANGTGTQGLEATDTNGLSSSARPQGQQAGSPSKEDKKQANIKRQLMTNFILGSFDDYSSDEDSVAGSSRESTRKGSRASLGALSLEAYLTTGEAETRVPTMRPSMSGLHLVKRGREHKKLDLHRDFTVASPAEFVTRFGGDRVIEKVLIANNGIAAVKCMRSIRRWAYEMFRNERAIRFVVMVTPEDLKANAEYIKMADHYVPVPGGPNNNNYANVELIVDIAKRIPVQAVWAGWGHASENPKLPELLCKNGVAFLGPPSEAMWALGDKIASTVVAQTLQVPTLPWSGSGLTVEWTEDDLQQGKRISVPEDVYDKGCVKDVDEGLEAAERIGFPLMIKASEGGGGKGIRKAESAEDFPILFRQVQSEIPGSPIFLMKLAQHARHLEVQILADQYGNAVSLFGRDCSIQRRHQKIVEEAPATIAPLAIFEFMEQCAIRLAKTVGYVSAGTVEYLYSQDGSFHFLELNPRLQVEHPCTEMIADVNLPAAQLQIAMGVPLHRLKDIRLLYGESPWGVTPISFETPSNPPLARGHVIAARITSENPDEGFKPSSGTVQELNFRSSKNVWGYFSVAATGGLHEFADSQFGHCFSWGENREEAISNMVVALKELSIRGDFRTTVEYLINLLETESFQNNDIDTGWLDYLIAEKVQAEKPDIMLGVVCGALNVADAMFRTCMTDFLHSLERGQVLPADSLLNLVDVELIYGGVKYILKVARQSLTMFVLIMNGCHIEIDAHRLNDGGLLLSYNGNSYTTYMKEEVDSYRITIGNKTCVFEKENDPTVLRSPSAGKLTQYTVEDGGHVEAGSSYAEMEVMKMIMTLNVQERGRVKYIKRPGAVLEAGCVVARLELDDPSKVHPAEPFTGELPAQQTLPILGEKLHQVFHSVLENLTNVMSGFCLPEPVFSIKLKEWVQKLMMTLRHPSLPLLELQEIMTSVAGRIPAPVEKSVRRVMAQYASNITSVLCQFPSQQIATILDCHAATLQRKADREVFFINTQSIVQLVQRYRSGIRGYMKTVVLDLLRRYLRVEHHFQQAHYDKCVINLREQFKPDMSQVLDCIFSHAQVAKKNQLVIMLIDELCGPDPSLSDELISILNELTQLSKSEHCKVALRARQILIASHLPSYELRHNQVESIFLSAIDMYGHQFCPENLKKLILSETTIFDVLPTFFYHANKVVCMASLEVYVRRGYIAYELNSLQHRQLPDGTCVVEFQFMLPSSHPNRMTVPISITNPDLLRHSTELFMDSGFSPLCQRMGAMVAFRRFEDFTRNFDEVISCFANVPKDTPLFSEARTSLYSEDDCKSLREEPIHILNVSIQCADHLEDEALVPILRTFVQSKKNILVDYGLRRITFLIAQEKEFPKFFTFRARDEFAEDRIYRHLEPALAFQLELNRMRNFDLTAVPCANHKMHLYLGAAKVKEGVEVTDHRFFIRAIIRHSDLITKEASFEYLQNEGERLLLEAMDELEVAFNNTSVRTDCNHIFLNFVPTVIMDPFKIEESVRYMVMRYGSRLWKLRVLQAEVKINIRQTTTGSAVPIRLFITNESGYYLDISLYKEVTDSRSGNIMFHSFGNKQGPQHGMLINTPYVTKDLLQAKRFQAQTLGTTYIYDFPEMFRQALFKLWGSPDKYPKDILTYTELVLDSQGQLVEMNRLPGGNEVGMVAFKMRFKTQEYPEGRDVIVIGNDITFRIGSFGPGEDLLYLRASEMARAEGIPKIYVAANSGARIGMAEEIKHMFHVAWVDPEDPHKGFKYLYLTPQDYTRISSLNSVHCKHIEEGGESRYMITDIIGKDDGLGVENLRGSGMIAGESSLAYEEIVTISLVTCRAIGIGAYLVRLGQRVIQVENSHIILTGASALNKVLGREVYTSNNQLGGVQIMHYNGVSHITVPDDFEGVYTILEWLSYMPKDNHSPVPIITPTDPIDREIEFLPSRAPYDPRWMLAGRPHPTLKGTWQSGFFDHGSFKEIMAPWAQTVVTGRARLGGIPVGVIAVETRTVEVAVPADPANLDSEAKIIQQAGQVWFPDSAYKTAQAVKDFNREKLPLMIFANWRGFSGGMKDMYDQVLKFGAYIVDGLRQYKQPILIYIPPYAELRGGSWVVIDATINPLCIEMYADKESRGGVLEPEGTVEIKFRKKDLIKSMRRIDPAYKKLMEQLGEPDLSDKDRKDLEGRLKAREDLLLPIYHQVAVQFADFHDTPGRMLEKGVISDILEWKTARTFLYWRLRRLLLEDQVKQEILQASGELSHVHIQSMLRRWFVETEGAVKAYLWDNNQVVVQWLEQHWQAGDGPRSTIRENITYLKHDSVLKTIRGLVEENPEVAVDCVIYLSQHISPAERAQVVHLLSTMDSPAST
UniProt Q9ULC5: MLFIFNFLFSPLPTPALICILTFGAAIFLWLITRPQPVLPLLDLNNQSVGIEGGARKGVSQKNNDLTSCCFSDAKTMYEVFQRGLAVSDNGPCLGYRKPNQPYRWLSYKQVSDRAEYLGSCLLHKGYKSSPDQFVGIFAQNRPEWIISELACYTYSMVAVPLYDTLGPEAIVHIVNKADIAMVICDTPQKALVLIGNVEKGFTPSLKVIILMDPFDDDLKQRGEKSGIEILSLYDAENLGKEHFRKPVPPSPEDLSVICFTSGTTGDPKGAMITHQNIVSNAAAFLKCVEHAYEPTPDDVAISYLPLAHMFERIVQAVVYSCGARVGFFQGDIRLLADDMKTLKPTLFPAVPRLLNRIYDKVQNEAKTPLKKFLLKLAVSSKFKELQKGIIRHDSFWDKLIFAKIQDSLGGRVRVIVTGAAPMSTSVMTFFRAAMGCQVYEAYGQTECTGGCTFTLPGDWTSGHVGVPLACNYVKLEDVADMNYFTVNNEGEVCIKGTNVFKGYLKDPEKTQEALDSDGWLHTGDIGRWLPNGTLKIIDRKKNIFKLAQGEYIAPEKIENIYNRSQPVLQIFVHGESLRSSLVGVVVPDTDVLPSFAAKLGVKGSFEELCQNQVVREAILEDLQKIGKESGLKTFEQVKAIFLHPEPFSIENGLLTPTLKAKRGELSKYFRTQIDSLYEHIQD
UniProt P33121: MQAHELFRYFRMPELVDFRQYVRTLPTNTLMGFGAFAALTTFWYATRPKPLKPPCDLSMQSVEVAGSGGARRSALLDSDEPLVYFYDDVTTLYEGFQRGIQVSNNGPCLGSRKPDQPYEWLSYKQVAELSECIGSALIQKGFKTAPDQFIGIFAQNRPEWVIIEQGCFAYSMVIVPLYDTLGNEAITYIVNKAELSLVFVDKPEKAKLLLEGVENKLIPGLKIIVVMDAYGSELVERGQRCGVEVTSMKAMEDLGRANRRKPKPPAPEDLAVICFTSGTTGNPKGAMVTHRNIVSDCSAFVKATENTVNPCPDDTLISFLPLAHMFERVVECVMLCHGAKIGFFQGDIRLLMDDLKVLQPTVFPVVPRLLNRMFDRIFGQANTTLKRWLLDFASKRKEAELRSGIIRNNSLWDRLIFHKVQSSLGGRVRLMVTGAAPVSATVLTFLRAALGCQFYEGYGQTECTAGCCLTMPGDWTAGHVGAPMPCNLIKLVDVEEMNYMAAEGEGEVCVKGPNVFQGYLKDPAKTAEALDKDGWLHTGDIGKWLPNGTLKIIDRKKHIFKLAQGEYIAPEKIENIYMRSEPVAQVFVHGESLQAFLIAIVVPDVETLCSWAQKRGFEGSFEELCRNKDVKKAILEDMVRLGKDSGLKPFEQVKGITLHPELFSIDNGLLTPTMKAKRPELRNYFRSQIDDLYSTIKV
UniProt Q13444: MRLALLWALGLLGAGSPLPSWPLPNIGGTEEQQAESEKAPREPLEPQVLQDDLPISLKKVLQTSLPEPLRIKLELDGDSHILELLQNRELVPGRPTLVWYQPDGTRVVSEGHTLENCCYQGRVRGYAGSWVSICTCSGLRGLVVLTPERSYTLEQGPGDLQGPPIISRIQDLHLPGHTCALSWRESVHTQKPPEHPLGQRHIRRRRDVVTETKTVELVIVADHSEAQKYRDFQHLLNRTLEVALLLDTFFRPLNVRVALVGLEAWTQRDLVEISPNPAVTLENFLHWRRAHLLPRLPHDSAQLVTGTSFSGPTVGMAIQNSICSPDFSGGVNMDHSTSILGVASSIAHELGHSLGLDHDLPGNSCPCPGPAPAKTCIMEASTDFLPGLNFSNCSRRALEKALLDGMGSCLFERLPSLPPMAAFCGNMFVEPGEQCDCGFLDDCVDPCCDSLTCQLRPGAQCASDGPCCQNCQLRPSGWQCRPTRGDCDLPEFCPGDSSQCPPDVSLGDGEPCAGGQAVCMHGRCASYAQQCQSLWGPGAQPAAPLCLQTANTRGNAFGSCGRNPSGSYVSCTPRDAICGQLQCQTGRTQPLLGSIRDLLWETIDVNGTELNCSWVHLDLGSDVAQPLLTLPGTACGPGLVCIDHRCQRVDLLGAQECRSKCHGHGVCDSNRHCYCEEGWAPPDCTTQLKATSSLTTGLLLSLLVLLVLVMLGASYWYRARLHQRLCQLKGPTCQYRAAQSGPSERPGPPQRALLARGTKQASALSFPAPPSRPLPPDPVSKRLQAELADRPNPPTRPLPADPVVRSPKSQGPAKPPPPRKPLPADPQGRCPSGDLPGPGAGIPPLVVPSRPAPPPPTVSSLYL
UniProt P14621: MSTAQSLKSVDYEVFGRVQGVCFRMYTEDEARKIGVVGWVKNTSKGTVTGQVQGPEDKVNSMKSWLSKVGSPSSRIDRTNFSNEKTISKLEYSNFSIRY
UniProt Q9P1F3: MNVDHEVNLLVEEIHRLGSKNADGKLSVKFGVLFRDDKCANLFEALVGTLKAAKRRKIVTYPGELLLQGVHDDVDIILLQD
UniProt Q8NFV4: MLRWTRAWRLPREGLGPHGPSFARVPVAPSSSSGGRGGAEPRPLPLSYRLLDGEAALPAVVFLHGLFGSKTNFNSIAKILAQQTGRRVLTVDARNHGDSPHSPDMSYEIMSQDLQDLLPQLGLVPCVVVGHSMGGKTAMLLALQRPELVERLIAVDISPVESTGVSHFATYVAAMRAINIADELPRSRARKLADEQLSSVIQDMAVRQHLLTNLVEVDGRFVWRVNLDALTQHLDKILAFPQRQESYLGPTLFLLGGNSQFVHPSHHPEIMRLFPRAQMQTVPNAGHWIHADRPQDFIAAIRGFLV
UniProt Q5VST6: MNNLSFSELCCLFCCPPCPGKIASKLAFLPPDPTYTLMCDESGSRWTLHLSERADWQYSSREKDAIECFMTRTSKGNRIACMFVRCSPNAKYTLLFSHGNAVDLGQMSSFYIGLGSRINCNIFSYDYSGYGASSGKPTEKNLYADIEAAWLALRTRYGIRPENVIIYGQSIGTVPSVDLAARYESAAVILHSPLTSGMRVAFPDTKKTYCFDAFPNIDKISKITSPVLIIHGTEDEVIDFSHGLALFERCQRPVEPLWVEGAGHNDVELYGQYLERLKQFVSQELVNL
UniProt P11310: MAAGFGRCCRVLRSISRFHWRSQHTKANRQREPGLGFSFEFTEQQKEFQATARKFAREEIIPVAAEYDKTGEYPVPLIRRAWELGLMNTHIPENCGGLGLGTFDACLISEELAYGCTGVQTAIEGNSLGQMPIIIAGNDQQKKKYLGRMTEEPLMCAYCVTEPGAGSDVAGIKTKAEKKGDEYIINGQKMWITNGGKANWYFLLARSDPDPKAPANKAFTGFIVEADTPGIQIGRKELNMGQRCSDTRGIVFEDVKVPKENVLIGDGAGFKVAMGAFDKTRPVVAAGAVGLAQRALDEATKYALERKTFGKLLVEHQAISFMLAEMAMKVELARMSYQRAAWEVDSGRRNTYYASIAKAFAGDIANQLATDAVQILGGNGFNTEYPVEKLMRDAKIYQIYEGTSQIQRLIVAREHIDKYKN
UniProt Q5T8D3: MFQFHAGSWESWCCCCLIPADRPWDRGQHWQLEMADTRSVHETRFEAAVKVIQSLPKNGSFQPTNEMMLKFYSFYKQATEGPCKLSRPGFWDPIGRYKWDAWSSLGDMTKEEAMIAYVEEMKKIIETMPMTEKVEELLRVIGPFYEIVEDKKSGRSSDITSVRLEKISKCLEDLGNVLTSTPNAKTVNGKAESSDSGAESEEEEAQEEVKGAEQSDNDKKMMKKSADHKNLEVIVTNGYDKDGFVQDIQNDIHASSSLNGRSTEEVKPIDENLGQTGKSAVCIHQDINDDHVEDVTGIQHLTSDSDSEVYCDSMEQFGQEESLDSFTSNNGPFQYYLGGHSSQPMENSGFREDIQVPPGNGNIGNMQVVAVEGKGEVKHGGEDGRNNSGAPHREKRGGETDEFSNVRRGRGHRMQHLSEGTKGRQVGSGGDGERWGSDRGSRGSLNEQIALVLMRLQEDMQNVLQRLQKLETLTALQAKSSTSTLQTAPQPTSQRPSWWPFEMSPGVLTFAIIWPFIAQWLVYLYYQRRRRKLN

Columns and labels:
Assay in all cases: log2 fold change, soluble protein after heating vs DMSO (PISA); higher = thermal stabilisation; K562 cells, 10 uM, 30 min; active = over 0.2 and 3.5 SD of the protein, either way, in both replicates (recomputed)
[1] = compound: COC1=CC=C(C=C1)CN2C=CC3=C2C=C(C=C3)C(=O)NO
How it was run: (§1)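 Soluble protein was defined as the supernatant after 21,000xg for 90 min. It came from K562 cells at 2×10^6 cells/mL given 10 μM compound for 30 min, heated in aliquots for 3 min across 48°C-58°C, pooled, and extracted in PBS with 0.5% NP-40 at 4°C, and was quantified by TMTpro 16plex LC-MS/MS with equalised channel sums. Thermal stability against control samples, from duplicates, is reported as log2 fold change.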

filanesib = compound: CON(C)C(=O)N1N=C(c2cc(F)ccc2F)S[C@@]1(CCCN)c1ccccc1 [filanesib]
How it was run: as §1

zotarolimus = compound: CO[C@H]1C[C@@H]2CC[C@@H](C)[C@@](O)(O2)C(=O)C(=O)N2CCCC[C@H]2C(=O)O[C@H]([C@H](C)C[C@@H]2CC[C@H](n3cnnn3)[C@H](OC)C2)CC(=O)[C@H](C)/C=C(\C)[C@@H](O)[C@@H](OC)C(=O)[C@H](C)C[C@H](C)/C=C/C=C/C=C/1C [zotarolimus]
How it was run: as §1

idasanutlin = compound: COc1cc(C(=O)O)ccc1NC(=O)[C@@H]1N[C@@H](CC(C)(C)C)[C@](C#N)(c2ccc(Cl)cc2F)[C@H]1c1cccc(Cl)c1F [idasanutlin]
How it was run: as §1

alisertib = compound: COc1cc(Nc2ncc3c(n2)-c2ccc(Cl)cc2C(c2c(F)cccc2OC)=NC3)ccc1C(=O)O [alisertib]
How it was run: as §1

[2] = compound: COc1cc2nc(-c3cc(F)ccc3O)nc(N[C@@H]3CNC[C@H]3C(C)(C)O)c2cc1OC
How it was run: as §1

[3] = compound: COc1cccc2cc(-c3nc([C@H]4CC[C@H](C(=O)O)CC4)n4ncnc(N)c34)[nH]c12
How it was run: as §1

lapatinib = compound: CS(=O)(=O)CCNCc1ccc(-c2ccc3ncnc(Nc4ccc(OCc5cccc(F)c5)c(Cl)c4)c3c2)o1 [lapatinib]
How it was run: as §1

pictilisib = compound: CS(=O)(=O)N1CCN(Cc2cc3nc(-c4cccc5[nH]ncc45)nc(N4CCOCC4)c3s2)CC1 [pictilisib]
How it was run: as §1

[4] = compound: CS(=O)(=O)c1ccc(-c2cnc(N)c(C(=O)Nc3ccccc3)n2)cc1
How it was run: as §1

crizotinib = compound: C[C@@H](Oc1cc(-c2cnn(C3CCNCC3)c2)cnc1N)c1c(Cl)ccc(F)c1Cl [crizotinib]
How it was run: as §1

[5] = compound: C[C@@H]1COCCN1C2=NC(=NC(=C2)C3(CC3)S(=O)(=O)C)C4=C5C=CNC5=CC=C4
How it was run: as §1

[6] = compound: C[C@H](C1=CC=C(C=C1)C(=O)NC2=C3C=CNC3=NC=C2)N
How it was run: as §1

duvelisib = compound: C[C@H](Nc1ncnc2nc[nH]c12)c1cc2cccc(Cl)c2c(=O)n1-c1ccccc1 [duvelisib]
How it was run: as §1

gandotinib = compound: Cc1cc(Nc2cc(CN3CCOCC3)c3nc(C)c(Cc4ccc(Cl)cc4F)n3n2)n[nH]1 [gandotinib]
How it was run: as §1

tozasertib = compound: Cc1cc(Nc2cc(N3CCN(C)CC3)nc(Sc3ccc(NC(=O)C4CC4)cc3)n2)n[nH]1 [tozasertib]
How it was run: as §1

[7] = compound: Cc1cc(SCc2sc(-c3ccc(C(F)(F)F)cc3)nc2C)ccc1OCC(=O)O
How it was run: as §1

doramapimod = compound: Cc1ccc(-n2nc(C(C)(C)C)cc2NC(=O)Nc2ccc(OCCN3CCOCC3)c3ccccc23)cc1 [doramapimod]
How it was run: as §1

ispinesib = compound: Cc1ccc(C(=O)N(CCCN)[C@@H](c2nc3cc(Cl)ccc3c(=O)n2Cc2ccccc2)C(C)C)cc1 [ispinesib]
How it was run: as §1

gefitinib = compound: COc1cc2ncnc(Nc3ccc(F)c(Cl)c3)c2cc1OCCCN1CCOCC1 [gefitinib]
How it was run: as §1

Measured: log2 fold change

ABRAXAS1 (UniProt Q6UWZ7)
inactive: [1] -0.043 | filanesib 0.31 | zotarolimus 0.073 | idasanutlin 0.263 | alisertib -0.251 | [2] 0.057 | [3] 0.042 | lapatinib 0.017 | pictilisib 0.02 | [4] 0 | crizotinib 0.054 | [5] -0.011 | [6] 0.216 | duvelisib -0.053 | gandotinib 0.222 | tozasertib -0.04 | [7] -0.058 | doramapimod 0.066 | ispinesib 0.013

ACACB (UniProt O00763)
inactive: [1] -0.019 | filanesib 0.258 | zotarolimus 0.132 | idasanutlin -0.042 | alisertib -0.168 | [2] 0.039 | gefitinib -0.02 | [3] -0.371 | lapatinib 0.068 | pictilisib 0.038 | [4] 0.078 | crizotinib -0.152 | [5] -0.13 | [6] 0.341 | gandotinib 0.041 | [7] 0.289 | doramapimod 0.168 | ispinesib -0.188

ACSL5 isoform 3 (UniProt Q9ULC5)
inactive: [1] -0.023 | filanesib -0.118 | zotarolimus 0.073 | idasanutlin -0.148 | alisertib -0.009 | [2] -0.259 | gefitinib 0.068 | [3] 0.074 | lapatinib 0.074 | pictilisib 0.065 | [4] -0.014 | crizotinib -0.146 | [5] 0.11 | [6] 0.009 | gandotinib 0.021 | [7] -0.033 | doramapimod 0.059 | ispinesib -0.316

AAK1 (UniProt Q2M2I8)
active: [6] 0.412
inactive: [1] 0.048 | filanesib -0.108 | zotarolimus -0.004 | idasanutlin -0.129 | alisertib 0.576 | [2] 0.024 | gefitinib -0.097 | [3] 0.022 | lapatinib 0.038 | pictilisib 0.087 | [4] 0.043 | crizotinib 0.169 | [5] 0.028 | gandotinib 0.091 | [7] 0.096 | doramapimod -0.095 | ispinesib 0.091

ACSL1 (UniProt P33121)
inactive: [1] -0.014 | filanesib -0.08 | zotarolimus 0.038 | idasanutlin -0.017 | alisertib 0.015 | [2] -0.261 | gefitinib 0.024 | [3] 0.024 | lapatinib 0.017 | pictilisib 0.041 | [4] 0.012 | crizotinib -0.091 | [5] 0.017 | [6] -0.024 | gandotinib 0.008 | [7] 0 | doramapimod -0.003
active: ispinesib -0.246

ADAM15 (UniProt Q13444)
inactive: [1] -0.159 | filanesib 0.065 | zotarolimus -0.206 | idasanutlin -0.083 | [2] 0.078 | gefitinib -0.029 | lapatinib 0 | pictilisib -0.045 | [4] 0 | crizotinib 0.097 | [5] 0.015 | [6] -0.047 | gandotinib -0.047 | [7] -0.047 | doramapimod 0.033 | ispinesib -0.119

ACYP2 (UniProt P14621)
inactive: [1] -0.056 | filanesib -0.076 | zotarolimus -0.123 | alisertib 0.034 | [2] -0.15 | gefitinib 0.087 | [3] 0.189 | lapatinib 0.027 | [4] -0.064 | crizotinib 0.077 | [6] -0.209 | tozasertib -0.005 | doramapimod 0.071

ADCK1 (UniProt Q86TW2)
inactive: [1] 0.072 | filanesib -0.077 | zotarolimus -0.139 | alisertib -0.059 | [2] 0.058 | gefitinib -0.044 | [3] 0.175 | lapatinib 0.08 | [4] -0.026 | crizotinib -0.118 | [5] -0.2 | [6] -0.041 | duvelisib -0.099 | tozasertib -0.22 | [7] -0.061 | doramapimod 0.282 | ispinesib -0.047

ABRACL (UniProt Q9P1F3)
inactive: [1] 0.209 | filanesib 0.052 | alisertib 0.245 | gefitinib -0.011 | [3] -0.017 | [4] 0.032 | crizotinib 0.186 | doramapimod -0.055 | ispinesib 0.04

ABCD4 (UniProt O14678)
inactive: [1] -0.007 | filanesib -0.111 | zotarolimus -0.069 | idasanutlin -0.188 | alisertib -0.151 | [2] -0.023 | gefitinib -0.016 | [3] 0.048 | lapatinib 0.091 | [4] 0.1 | crizotinib -0.015 | [5] -0.13 | [6] -0.09 | tozasertib 0.067 | doramapimod 0.134 | ispinesib -0.127

ACSL4 (UniProt O60488)
inactive: [1] 0.09 | filanesib -0.071 | zotarolimus -0.058 | idasanutlin -0.113 | alisertib -0.006 | [2] -0.105 | gefitinib 0.075 | [3] -0.053 | lapatinib 0.052 | pictilisib 0.052 | [4] 0.02 | [5] 0.07 | [6] 0.099 | gandotinib -0.089 | [7] 0.151 | doramapimod 0.01
active: crizotinib -0.338 | ispinesib -0.311

ABL2 (UniProt P42684)
inactive: [1] 0.05 | filanesib 0.012 | [4] 0.188 | crizotinib 0.183 | [5] 0.101 | tozasertib -0.022 | doramapimod 0.004 | ispinesib -0.288

ABHD11 (UniProt Q8NFV4)
inactive: [1] -0.076 | zotarolimus 0.049 | idasanutlin -0.058 | alisertib -0.002 | [2] 0.061 | gefitinib -0.013 | [3] 0.076 | lapatinib -0.037 | pictilisib 0.024 | crizotinib 0.149 | [6] 0.057 | [7] -0.003 | doramapimod 0.028 | ispinesib 0.029
active: [5] 0.309 | gandotinib 0.389

ACTG1 (UniProt K7EM38)
inactive: [1] -0.011 | filanesib 0.005 | zotarolimus 0.112 | idasanutlin -0.487 | [2] 0.409 | lapatinib -0.045 | pictilisib -0.255 | [4] 0.019 | crizotinib 0.136 | [5] 0.004 | [6] 0.014 | duvelisib 0.133 | gandotinib -0.682 | tozasertib -0.062 | [7] 0.063 | doramapimod 0.116 | ispinesib 0.127

ABCC5 (UniProt O15440)
inactive: [1] -0.026 | filanesib 0.001 | zotarolimus -0.02 | idasanutlin 0.017 | alisertib -0.026 | [2] 0.053 | gefitinib 0.089 | [3] -0.05 | lapatinib 0 | pictilisib -0.037 | [4] 0.045 | crizotinib -0.011 | [5] 0.031 | [6] 0.088 | gandotinib -0.05 | [7] -0.011 | doramapimod -0.023 | ispinesib -0.071

ABHD17B (UniProt Q5VST6)
inactive: [1] 0.011 | zotarolimus 0.053 | idasanutlin -0.097 | alisertib -0.087 | [2] 0.091 | gefitinib 0.035 | [3] 0.064 | lapatinib 0.001 | pictilisib 0.086 | crizotinib -0.075 | [5] 0.053 | [6] -0.028 | duvelisib -0.024 | gandotinib 0.069 | tozasertib 0.009 | [7] -0.021 | doramapimod -0.018 | ispinesib -0.014

ACADM isoform 2 (UniProt P11310)
inactive: [1] 0.039 | filanesib -0.036 | zotarolimus 0.014 | idasanutlin -0.039 | alisertib -0.055 | [2] 0.039 | gefitinib 0.017 | [3] 0.046 | lapatinib 0.001 | pictilisib 0.029 | [4] 0.075 | crizotinib 0.022 | [5] 0.018 | [6] -0.073 | gandotinib 0.049 | [7] -0.01 | doramapimod -0.059 | ispinesib 0.052

ACOX3 (UniProt O15254)
inactive: [1] 0.138 | filanesib 0.042 | zotarolimus -0.037 | idasanutlin 0.074 | alisertib 0.555 | [2] -0.106 | gefitinib 0.116 | [3] 0.144 | lapatinib 0.41 | [4] -0.006 | crizotinib -0.091 | [5] 0.016 | [6] 0.065 | doramapimod 0.14

ACBD5 (UniProt Q5T8D3)
inactive: [1] 0.062 | filanesib -0.008 | zotarolimus 0.176 | idasanutlin 0.175 | alisertib -0.081 | [2] -0.171 | [3] -0.079 | lapatinib -0.029 | pictilisib -0.002 | [4] 0.033 | crizotinib 0.102 | [5] 0.059 | [6] 0.203 | duvelisib -0.048 | gandotinib -0.295 | tozasertib -0.096 | [7] 0.095 | doramapimod 0.053 | ispinesib -0.146

Reprinted from the entries so far (three entries):
ABHD17B (UniProt Q5VST6)
inactive: [1] 0.011 | zotarolimus 0.053 | idasanutlin -0.097 | alisertib -0.087 | [2] 0.091 | gefitinib 0.035 | [3] 0.064 | lapatinib 0.001 | pictilisib 0.086 | crizotinib -0.075 | [5] 0.053 | [6] -0.028 | duvelisib -0.024 | gandotinib 0.069 | tozasertib 0.009 | [7] -0.021 | doramapimod -0.018 | ispinesib -0.014

ACADM isoform 2 (UniProt P11310)
inactive: [1] 0.039 | filanesib -0.036 | zotarolimus 0.014 | idasanutlin -0.039 | alisertib -0.055 | [2] 0.039 | gefitinib 0.017 | [3] 0.046 | lapatinib 0.001 | pictilisib 0.029 | [4] 0.075 | crizotinib 0.022 | [5] 0.018 | [6] -0.073 | gandotinib 0.049 | [7] -0.01 | doramapimod -0.059 | ispinesib 0.052

ACOX3 (UniProt O15254)
inactive: [1] 0.138 | filanesib 0.042 | zotarolimus -0.037 | idasanutlin 0.074 | alisertib 0.555 | [2] -0.106 | gefitinib 0.116 | [3] 0.144 | lapatinib 0.41 | [4] -0.006 | crizotinib -0.091 | [5] 0.016 | [6] 0.065 | doramapimod 0.14

Next part:

ACO2 (UniProt Q99798)
inactive: [1] -0.101 | filanesib -0.081 | zotarolimus 0.015 | idasanutlin -0.086 | alisertib -0.016 | [2] 0.036 | gefitinib 0.008 | [3] 0.071 | lapatinib -0.018 | pictilisib 0.041 | [4] 0 | crizotinib -0.022 | [5] 0.102 | [6] -0.085 | gandotinib -0.088 | [7] 0.078 | doramapimod -0.026 | ispinesib 0.041
